Results published in PubChem BioAssay AID2685 (National Center for Advancing Translational Sciences (NCATS), 2010).
The other results are listed elsewhere or left out. Shown are side measurements of this screen, not its main read-out; they come without a call. Compounds called inactive in the main read-out are mostly missing here. The note in brackets gives the kind of curve behind each potency; many fits are weak.

Assay: qHTS Assay for Lipid Storage Modulators in Drosophila S3 Cells;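 for cell number change: cells counted by Cell Tracker Red CMTPX staining in the red channel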
Settings: BODIPY lipid droplet fluorescence, 18-24 h; for cell number change: measured here: cell count max response, cells fed with added oleic acid
Method in brief: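 Laser-scanning cytometry quantifies lipid droplet accumulation (500–530 nm total intensity; droplet/cell object ratio) in oleic acid-fed (400 uM added) Drosophila S3 cells treated with a concentration series. 20 uM Triacsin C defined 100% inhibition.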

[1] = measured here: cell number channel AC50, cells fed with added oleic acid
[2] = measured here: lipid fluorescence (Fed channel) AC50, cells fed with added oleic acid

| SMILES | cell number change [%] | AC50 [1] | AC50 [2] |
| --- | --- | --- | --- |
| CCOc1ccc(S(=O)(=O)Nc2ccc(C(=O)NCCCN3CCOCC3)cc2)cc1 | -5.5 | – | – |
| O=C(O)c1cccc(NC(=O)c2cccc(NC(=O)C3CCCO3)c2)c1 (centres undefined) | -43.3 | 25.9 µM [falling, single point] | 25.9 µM [falling, single point] |
| O=C(Nn1nnnc1Nc1ccccc1)C12CC3CC(CC(C3)C1)C2 | -54 | 29.1 µM [falling, single point] | 29.1 µM [falling, single point] |
| Cc1cc(C)c2c(CN3CCN(Cc4ccccc4)CC3)cc(=O)oc2c1C | 29.8 | – | 16.4 µM [rising, partial curve, poor fit] |
| COCCN(C(=O)COC(=O)c1c(NC(C)=O)sc(C)c1C)c1c(N)n(Cc2ccccc2)c(=O)[nH]c1=O | 8.16 | – | 18.4 µM [falling, single point] |
| CC(=O)c1c(C)nc(C)nc1NC(=O)C(C)C | -24.1 | – | 0.116 µM [falling, full curve, poor fit] |
| O=S1(=O)c2ccccc2N=NN1Cc1ccc(Cl)cc1 | 8.91 | – | 0.58 µM [falling, single point] |
| O=C(CCc1nnc(CCCCc2ccccc2)o1)NCc1cccc(F)c1 | -14.8 | – | 7.31 µM [falling, partial curve] |
| CCC(=O)Nc1ccc(C(=O)COC(=O)c2nc3nccc(C)n3n2)cc1 | 1.2 | – | – |
| Cc1nc(Nc2ccc3c(c2)OCCO3)c2nnn(Cc3ccccc3Cl)c2n1 | 66.9 | 1.46 µM [rising, full curve] | 0.651 µM [rising, full curve] |
| Cc1ccc(C)c2[nH]c(=O)c(C(c3nnnn3C3CCCC3)N3CCOCC3)cc12 (centres undefined) | 32.2 | 0.0651 µM [rising, full curve] | 4.11 µM [rising, full curve, poor fit] |
| COc1ccc(NC(=O)CSc2cn[nH]n2)cc1OC | -12.7 | – | – |
| COc1ccc(NC(=O)CSc2nc(O)cc(=O)n2-c2ccccc2OC)cc1 | -61.3 | 20.6 µM [falling, single point] | 8.2 µM [falling, full curve] |
| CC(NC(=O)COc1ccc([N+](=O)[O-])cc1)c1ccccc1 (centres undefined) | 21.5 | – | – |
| Cc1cc(C)cc(NC(=O)COc2ccc(C(=S)N3CCOCC3)cc2)c1 | 36.7 | – | 23.1 µM [rising, single point] |
| Cc1ccc(CC(=O)NNC(=O)c2cccs2)cc1C | -99.5 | 29.1 µM [falling, single point] | – |
| Oc1ccc(/C=N/Nc2nc(-c3cccnc3)nc3ccccc23)c(O)c1 | -57 | 20.6 µM [falling, partial curve] | 20.6 µM [falling, partial curve, poor fit] |
| COc1ccc(OC)c(-n2c(SCC(N)=O)nnc2-c2c[nH]c3ccccc23)c1 | 38.9 | 11.6 µM [rising, partial curve] | 11.6 µM [rising, partial curve] |
| CCN(CC(=O)Nc1ccccc1C(F)(F)F)C(=O)c1ccccc1Sc1ccccc1C#N | 17 | – | 16.4 µM [falling, single point] |
| Cc1ccc(NC(=O)C2C3C=CC4(O3)C2C(=O)N(CCCN2CCCCC2)C4C(=O)NC2CCCCC2)cc1Cl (centres undefined) | 9.68 | – | – |

| SMILES | cell number change [%] | AC50 [1] | AC50 [2] |
| --- | --- | --- | --- |
| CC(C)c1ccc(CN2CCC(Oc3ccc(C(=O)N4CCCC4)cc3)CC2)cc1 | 35.3 | 1.41 µM [rising, full curve, poor fit] | 3.55 µM [rising, full curve, poor fit] |
| CCOC(=O)c1ccc(NC(=O)CSc2nc3cccnc3n2C)cc1 | -54.6 | 13 µM [falling, partial curve] | 16.4 µM [falling, partial curve] |
| CCc1ccc(S(=O)(=O)Nc2c(C)nn(C)c2C)cc1 | -51.9 | 29.1 µM [falling, single point] | 1.3 µM [rising, partial curve] |
| COC(=O)c1cccc(NC(=O)c2cccs2)c1C | – | 1.16 µM [rising, full curve] | 0.731 µM [rising, single point] |
| CCOc1ccc(-n2c(SCC(=O)Nc3cc(C(=O)O)ccc3Cl)nc3ccccc3c2=O)cc1 | 24.4 | 1.03 µM [rising, full curve, poor fit] | – |
| O=C(O)c1cc2c(ccc3ccccc32)[nH]1 | -1.02 | – | 3.26 µM [falling, single point] |
| Cc1ccc(CNC(=O)CCCCCNC(=O)N2CCn3c2nc2ccccc23)cc1 | -10.4 | – | 0.58 µM [rising, single point] |
| C=C(C)C(=O)N1CC2(CC(c3cccc(NC(=O)c4ccccc4)c3)=NO2)C[C@@H]1C(N)=O (some centres undefined) | 182 | 29.1 µM [rising, single point] | 23.1 µM [rising, single point] |
| C[C@H](NC(=O)[C@H]1N2C(=O)c3ccccc3C2SC1(C)C)C(=O)N1CCCCC1 (some centres undefined) | – | – | 4.11 µM [falling, partial curve] |
| Cc1ccc2[nH]c3nc(NN)nnc3c2c1 | -14 | – | 23.1 µM [falling, single point] |
| COc1cc([N+](=O)[O-])ccc1N/C=C/C(=O)c1cccs1 | – | – | 29.1 µM [falling, single point] |
| Nc1ccc(C(=O)NCC(=O)O)cc1 | 13.5 | – | 0.411 µM [rising, full curve, poor fit] |
| O=C(NNc1ccc([N+](=O)[O-])cc1)C1CC1c1ccccc1 (centres undefined) | -4.33 | – | 20.6 µM [rising, single point] |
| COc1ccc(NS(=O)(=O)c2ccc(N)cc2)nn1 | -23.1 | – | 0.731 µM [falling, full curve, poor fit] |
| Cc1ccsc1C(=O)N(C)CC(=O)N(CC(C)C)c1c(N)n(CC(C)C)c(=O)[nH]c1=O | 6.02 | – | – |
| Cc1[nH]nc2c1C(c1ccc(N(C)C)cc1)C1=C(CC(C)(C)CC1=O)N2 (centres undefined) | -5.87 | – | 31.6 µM [rising, single point] |
| COc1ccc(/C=N/NC(=O)c2ccoc2C)cc1COc1c(C)cccc1C | -22.5 | – | 2.59 µM [rising, full curve, poor fit] |
| O=C1CSC(c2ccc(Cl)cc2)N1C1CCCCC1 (centres undefined) | 19.7 | 0.00517 µM [rising, full curve, poor fit] | – |
| O=C(NCCc1ccc(Cl)cc1)c1cc(-c2ccccn2)nc2ccccc12 | -5.44 | – | 2.91 µM [rising, single point] |
| Cc1nc(NCC2CCCO2)nc2c1C(=O)CC(C)C2 (centres undefined) | 6.15 | – | 6.51 µM [falling, single point] |

Reformatted: 4 of the compounds above
C[C@H](NC(=O)[C@H]1N2C(=O)c3ccccc3C2SC1(C)C)C(=O)N1CCCCC1 (some centres undefined)
  AC50 [2]: 4.11 µM [falling, partial curve]
Cc1ccc2[nH]c3nc(NN)nnc3c2c1
  cell number change [%]: -14
  AC50 [2]: 23.1 µM [falling, single point]
COc1cc([N+](=O)[O-])ccc1N/C=C/C(=O)c1cccs1
  AC50 [2]: 29.1 µM [falling, single point]
Nc1ccc(C(=O)NCC(=O)O)cc1
  cell number change [%]: 13.5
  AC50 [2]: 0.411 µM [rising, full curve, poor fit]

(listing goes on)

| SMILES | cell number change [%] | AC50 [1] | AC50 [2] |
| --- | --- | --- | --- |
| COc1c(C)cccc1C(=O)Nc1ccc(OCC(=O)N2CCOCC2)cc1C | 24.9 | – | – |
| COc1ccc(Cc2nnc(SCC(=O)N(C)CC(=O)Nc3ccc(C)cc3)o2)cc1 | 54.8 | 13 µM [rising, partial curve] | 20.6 µM [rising, partial curve] |
| O=c1c2cn[nH]c2[nH]c(=S)n1-c1ccccc1Cl | -37.9 | 32.6 µM [falling, single point] | – |
| CC1CCCCN1C(=O)C(=O)c1cn(CC(=O)N2CCCC2)c2ccccc12 (centres undefined) | -24 | – | 6.51 µM [falling, single point] |
| CC(NC(=O)CN1C(=O)NC2(CCCCC2C)C1=O)c1ccccc1 (centres undefined) | 11 | – | 3.66 µM [rising, partial curve, poor fit] |
| CCOC(=O)N1CCC(NC(=O)C2CCN(S(=O)(=O)c3cnc[nH]3)CC2)CC1 | -9.6 | – | 25.9 µM [falling, partial curve, poor fit] |
| O=C(COC(=O)c1cccnc1Cl)Nc1cc(S(=O)(=O)N2CCOCC2)ccc1Cl | 0.137 | – | 6.51 µM [falling, single point] |
| CCOC(=O)COc1ccc2cc(C(=O)OCC)c(=O)oc2c1 | -12.9 | – | 0.0651 µM [falling, full curve, poor fit] |
| C/C(=N\NC(=O)CNc1cccc(C(F)(F)F)c1)c1cccc(Br)c1 | -65.8 | 11.6 µM [falling, partial curve] | 11.6 µM [falling, partial curve] |
| Cc1ccc(NC(=O)N2CCc3ccccc3C2)cc1C | 13.9 | 6.51 µM [rising, single point] | – |
| Cc1cc(Cl)ccc1OCC(=O)Nc1ccc(CN2CCOCC2)cc1 | -25.7 | – | – |
| CCOC(=O)c1sc(NC(=O)CN2CCCC2)c(C(=O)OCC)c1C | 0.139 | 0.366 µM [falling, single point] | 29.1 µM [falling, single point] |
| CCCN1CCC(=O)N([C@H](CSc2ccc(C)cc2)c2ccccc2)CC1 | 22.4 | – | 16.4 µM [rising, partial curve] |
| Cc1ccc(C)n1-c1ccc(C(=O)NN)s1 | 3.3 | 0.103 µM [rising, partial curve, poor fit] | 1.03 µM [rising, full curve] |
| O=C(Nc1cccc(Br)c1)c1cccc(OC(=S)N2CCOCC2)c1 | -18.8 | – | – |
| Brc1cccc(CNc2nc3ccccc3n2CCN2CCOCC2)c1 | -2.23 | – | 0.58 µM [rising, single point] |
| COc1ccc(N2CCN(c3ccc(S(=O)(=O)N(C(C)C)C(C)C)cn3)CC2)cc1 | -9.21 | – | – |
| CCC(C)(C)NC(=O)Cc1ccc(OC)c(OC)c1 | 10.9 | 0.731 µM [falling, full curve, poor fit] | – |
